{"source": "patent EP2698385A1", "about": "“Detection of synthetic cannabinoids” (priority 2012, dated 2014)", "format_in_all_cases": "binding, sheep", "key": {"[1]": {"system": "Antibody to Immunogen I", "description": "(§1) An aqueous solution of each immunogen was formulated with Freund's Complete Adjuvant (FCA) to form an emulsion consisting of 2mg/ml* immunogen in 50% (v/v) FCA. Three sheep were immunised with this emulsion (1° immunisation), 0.25ml being intramuscularly injected at each of four sites in the flank of each animal. Subsequent immunizations (boosts) contained 1mg/ml* immunogen. All boosts were emulsified in 50% (v/v) Freund's Incomplete Adjuvant (FIA) and were administered in the same manner as the 1° immunisation, at monthly intervals. Blood sampling took place 7 to 14 days after each boost. *The general procedure for immunogen administration is outlined above, however, it was necessary to deviate from this protocol in some cases, due to reduced immunogen concentrations (Immunogens II, IV, VII and VIII) and/or amount available (Immunogen VIII). Any deviations from the protocol described are outlined in Table 1A below and highlighted in bold. Table 1A: Amount and volume of immunogens administered for primary and subsequent boosts\n(§2) The wells of an enhanced binding 96 well polystyrene microtiter plate were coated with IgG fraction of antiserum raised to Immunogen I or II, diluted in 10mM Tris, pH8.5 (125µl/well). The appropriate antibody coating dilution was determined using standard ELISA checkerboard techniques. The plate was incubated overnight at 4°C, washed 4 times over 10 minutes with Tris buffered saline containing Tween 20 (TBST) and tapped dry. Standard solutions (JWH-018 for Immunogens I and II) were applied at 0, 0.625, 1.25, 2.5, 5, 10, 20 and 40ng/ml and 50µl of each was added to the appropriate wells. 75µl of conjugate (appropriate hapten-HRP) diluted in Tris buffer (pH 7.2) containing EDTA, D-mannitol, sucrose, thimerosal and BSA, was added to each of the wells. The appropriate dilution of conjugate was also determined using standard ELISA checkerboard techniques. The plate was incubated at 25°C for 1 hour. Excess unbound conjugate was removed by washing 6 times over a 10 minute period with TBST. 125µl of tetramethylbenzidine (TMB) substrate solution was added to each well of the plate that was then incubated for 20 minutes in the dark at room temperature. The reaction was terminated by addition of 125µl 0.2M H2SO4 to each well. The absorbance was then measured at 450nm using a microtiter plate reader. The data are inputted to a computer program called 'KC Junior'. It is a 4 parameter fit curve and allow the calculatation of concentrations between the standard runs. This program is used to calculate the IC50s by dividing the 0ng/ml OD value by 2 and obtaining the concentration value from the curve for this OD.\nIn a similar manner to that described above, the wells of a 96-well microtiter plate were coated with the IgG fraction of the antiserum raised to Immunogens I or II. Standard solutions (JWH-018 for Immunogen I and II) were applied at 0, 0.625, 1.25, 2.5, 5, 10, 20 and 40ng/ml and conjugate was employed as detection reagent.\n(§3) The data set our in Tables 3 and 4 are generated using antibodies raised against the indicated Immunogens in a competitive binding assay with the indicated tracers, using the indicated standards: Table 2\n(§4) A450 = absorbance at 450nm B = absorbance at 450nm at xng/ml standard concentration B0 = absorbance at 450nm at 0ng/ml standard concentration IC50 = standard concentration which produces 50% B/B0\n(§5) In order to determine the specificity of the competitive ELISAs, standard solutions of a range of structurally similar synthetic cannabinoids and their metabolites were prepared in TBST. Using the calibration curves generated and employing a single level of cross reactants, these were used to determine the cross-reactivity of each immunoassay with these substances. […]"}, "[2]": {"system": "Antibody to Immunogen II", "test": "Competitive ELISA (Example 36), antibody RS1833B12, tracer ESC4555/LK959, standard JWH-018", "description": "as §1\nas §2, with “The” for “The wells of an enhanced binding 96 well polystyrene microtiter plate were coated with IgG fraction of antiserum raised to Immunogen I or II, diluted in 10mM Tris, pH8.5 (125µl/well). The”, “Standard solutions (JWH-018 for Immunogens I and II) were applied at 0, 0.625, 1.25, 2.5, 5, 10, 20 and 40ng/ml and 50µl of each was added to the appropriate wells.” left out, “runs.” for “runs. This program is used to calculate the IC50s by dividing the 0ng/ml OD value by 2 and obtaining the concentration value from the curve for this OD.”\nIn a similar manner to that described above, the wells of a 96-well microtiter plate were coated with the IgG fraction of the antiserum raised to Immunogens I or II.\nas §3\nUsing the calibration curves generated and employing a single level of cross reactants, these were used to determine the cross-reactivity of each immunoassay with these substances. These are the standards used for the IC50 and cross-reactivity data generation • Immunogen I - JWH-018 • Immunogen II - JWH-018 • Immunogen IV - JWH-018 • Immunogen VII - JWH-015 • Immunogen VIII - JWH-018 Table 4: Cross reactivity of the competitive ELISAs for synthetic cannabinoids and their metabolites"}, "[3]": {"system": "Antibody to Immunogen IV", "description": "as §1, §2\n(§6) In a similar manner to that described above, the wells of a 96-well microtiter plate were coated with the IgG fraction of the antiserum raised to Immunogens IV, VII or VIII. Standard solutions (JWH-018 for Immunogens IV and VIII, JWH-015 for Immunogen VII) were prepared in TBST at 0, 1.25, 2.5, 5, 10, 20, 40 and 80ng/ml and conjugate was employed as detection reagent.\nas §3, §4, §5"}, "[4]": {"system": "Antibody to Immunogen VIII", "description": "as §1, §2, §6, §3, §4, §5"}}, "note": "Like-named read-outs stand apart in the source and are kept apart here."}
{"smiles": "CCCCCn1cc(C(=O)c2cccc3ccccc23)c2ccccc21", "note": "[JWH-018]", "values": [{"measurement": "A450", "setting": "[1]; JWH-018 standard 0.625 ng/ml", "value": 1.247}, {"measurement": "A450", "setting": "[1]; JWH-018 standard 1.25 ng/ml", "value": 1.004}, {"measurement": "A450", "setting": "[1]; JWH-018 standard 2.5 ng/ml", "value": 0.707}, {"measurement": "A450", "setting": "[1]; JWH-018 standard 5 ng/ml", "value": 0.504}, {"measurement": "A450", "setting": "[1]; JWH-018 standard 10 ng/ml", "value": 0.323}, {"measurement": "A450", "setting": "[1]; JWH-018 standard 20 ng/ml", "value": 0.22}, {"measurement": "A450", "setting": "[1]; JWH-018 standard 40 ng/ml", "value": 0.15}, {"measurement": "A450", "setting": "[2]; JWH-018 standard 0.625 ng/ml", "value": 0.984}, {"measurement": "A450", "setting": "[2]; JWH-018 standard 1.25 ng/ml", "value": 0.7685}, {"measurement": "A450", "setting": "[2]; JWH-018 standard 2.5 ng/ml", "value": 0.499}, {"measurement": "A450", "setting": "[2]; JWH-018 standard 5 ng/ml", "value": 0.3615}, {"measurement": "A450", "setting": "[2]; JWH-018 standard 10 ng/ml", "value": 0.2525}, {"measurement": "A450", "setting": "[2]; JWH-018 standard 20 ng/ml", "value": 0.1855}, {"measurement": "A450", "setting": "[2]; JWH-018 standard 40 ng/ml", "value": 0.149}, {"measurement": "A450", "setting": "[3]; JWH-018 standard 1.25 ng/ml", "value": 1.479}, {"measurement": "A450", "setting": "[3]; JWH-018 standard 2.5 ng/ml", "value": 1.1625}, {"measurement": "A450", "setting": "[3]; JWH-018 standard 5 ng/ml", "value": 0.7155}, {"measurement": "A450", "setting": "[3]; JWH-018 standard 10 ng/ml", "value": 0.442}, {"measurement": "A450", "setting": "[3]; JWH-018 standard 20 ng/ml", "value": 0.2645}, {"measurement": "A450", "setting": "[3]; JWH-018 standard 40 ng/ml", "value": 0.1735}, {"measurement": "A450", "setting": "[3]; JWH-018 standard 80 ng/ml", "value": 0.116}, {"measurement": "A450", "setting": "[4]; JWH-018 standard 1 ng/ml", "value": 1.09}, {"measurement": "A450", "setting": "[4]; JWH-018 standard 3 ng/ml", "value": 0.8765}, {"measurement": "A450", "setting": "[4]; JWH-018 standard 5 ng/ml", "value": 0.708}, {"measurement": "A450", "setting": "[4]; JWH-018 standard 10 ng/ml", "value": 0.5515}, {"measurement": "A450", "setting": "[4]; JWH-018 standard 20 ng/ml", "value": 0.4015}, {"measurement": "A450", "setting": "[4]; JWH-018 standard 40 ng/ml", "value": 0.3095}, {"measurement": "A450", "setting": "[4]; JWH-018 standard 80 ng/ml", "value": 0.217}]}
